PubChem BioAssay AID686937 – Drosophila RNAi Screening Center – 2013
The screen tested about 23,000 reagents; shown is a random part of those that have a named target and a result. 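Reduced-secretion tags in replicate 1 do not always agree with the z-scores; no criterion for assigning the tags was given.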 The numbers tell different reagents against one gene apart. A plus sign joins genes that one reagent is predicted to hit. Not given: the amount of reagent.

Test: 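Genes in the fly needed for secretion of protein constitutively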 (primary screen)
Cells: Drosophila S2 cells expressing secreted horseradish peroxidase
Reagent: long dsRNA against Drosophila genes
Timing: about 5.5 days (5 days dsRNA, then 12 h reporter induction)
Challenge: reporter expression induced after 5 days of dsRNA, read 12 h later; inducer not stated
Detection: 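After 5 days of dsRNA and 12 h of reporter induction, medium peroxidase read by chemiluminescence and scored as per-plate z-score; higher values mean more reporter released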
Scale: z-score: higher = more reporter secreted into medium

gene	dsRNA no.	z-score, replicate 1	z-score, replicate 2	z-score, replicate 3	z-score, replicate 4	phenotype, replicate 1
cta (concertina)	1	0.34	0.3			
TwdlN (TweedleN)	1	0.32	0.35			
dve (defective proventriculus)	1	0.24	0.31			
CG31275	1	0.48	0.72			
CG4766	1	0.38	0.51			
CG1113	1	0.32	0.08			
CG14563	1	0.19	0.25			
Uhg2 + snoRNA:Me18S-G1620 + snoRNA:U14:30Ea	1	0.12	0.39			
CG5854	1	0.57	0.09			
CG9592	1	-0.24	-0.1			
slif (slimfast)	1	0.32	0.41			
nst (nesthocker)	1	0.24	0.3			
fred (friend of echinoid)	1	0.13	0.14			
fred (friend of echinoid)	2	0.47	0.14	0.29	0.22	
fred (friend of echinoid)	3	0.03	0.18			
fred (friend of echinoid)	4	0.01	0.27			
fred (friend of echinoid)	5	0.66	0.8			
CG32006	1	-0.58	0.45			
CG5721	1	0.07	0.35			
aqz (aaquetzalli)	1	-1.86	-1.77			reduced secretion
Tango10 (Transport and Golgi organization 10)	1	-4.5	-3.59			reduced secretion
CG17883	1	-0.09	0.07			
CG32163	1	0.23	0.29	0.27	0.31	
CG32163	2	0.39	0.55			
CG1572	1	-0.32	-0.56			
Lgr3 (Leucine-rich repeat-containing G protein-coupled receptor 3)	1	0.42	0.3			
Lgr3 (Leucine-rich repeat-containing G protein-coupled receptor 3)	2	-0.2	-0.24			
CanB2 (Calcineurin B2)	1	0.77	0.62			
CG42615	1	-0.21				
Gbp1 (Growth-blocking peptide 1)	1	0.53	0.42			
Cks30A (Cyclin-dependent kinase subunit 30A)	1	0.31	-0.01			
CG32808	1	0.34	0.84			
CG18371	1	0.24	0.42			
Ost48 (Oligosaccharyltransferase 48kD subunit)	1	-0.46	-0.63			
lncRNA:Hsromega (Heat shock RNA omega)	1	0.06	0.05			
Obp56a (Odorant-binding protein 56a)	1	0.41	0.39			
CG14070	1	-0.09	0.04			
CG9411	1	0.39	0.47			
CG12769	1	0.56	0.43			
CG2126	1	0.17	0.34			
CG30274	1	0.26	0.02			
Obp56b (Odorant-binding protein 56b)	1	0.07	0.03			
Nepl13 (Neprilysin-like 13)	1	0.23	0.24			
EndoU (Endoribonuclease U-specific)	1	0.47	0.17			
DNAlig1 (DNA ligase 1)	1	-0.21	-0.49			
E(var)3-9 (Enhancer of variegation 3-9)	1	0.29	0.31			
CG5568	1	0.06	0.58	0.34	0.19	
CG5568	2	-0.2	-0.4			
CG8516	1	0.34	0.52			
CG9294	1	0.08	0.3			
OtopLc (Otopetrin-like c)	1	0.28	0.36			
OtopLc (Otopetrin-like c)	2	-2.33	-1.91			reduced secretion
OtopLc (Otopetrin-like c)	3	0.14	0.25			
FASN2 (Fatty acid synthase 2)	1	-0.1	0.25			
FASN2 (Fatty acid synthase 2)	2	0.29	0.34			
SamDC (S-adenosylmethionine decarboxylase)	1	0.27	0.25			

4 entries from above, reduced to “z-score, replicate 2”:
TwdlN (TweedleN): 0.35
dve (defective proventriculus): 0.31
CG31275: 0.72
CG4766: 0.51
